Source: the supplement of paper PMC12067093, “Discovery and optimisation of a covalent ligand for TRIM25 and its application to targeted protein ubiquitination” (Chemical Science, 2025)
This is one part of the list.

Amino acid sequences for entries named in this document (tags omitted). A change or cut given only in a name is not applied to a line headed by its entry.
UniProt Q13155: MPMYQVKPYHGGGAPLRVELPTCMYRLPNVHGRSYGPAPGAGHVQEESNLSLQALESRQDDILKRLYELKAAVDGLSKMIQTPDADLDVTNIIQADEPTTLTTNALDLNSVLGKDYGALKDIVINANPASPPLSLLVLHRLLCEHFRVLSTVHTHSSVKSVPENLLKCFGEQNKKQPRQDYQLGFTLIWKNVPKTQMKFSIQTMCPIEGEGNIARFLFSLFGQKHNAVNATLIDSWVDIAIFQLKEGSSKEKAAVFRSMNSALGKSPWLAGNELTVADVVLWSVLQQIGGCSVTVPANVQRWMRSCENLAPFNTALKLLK
UniProt P05091: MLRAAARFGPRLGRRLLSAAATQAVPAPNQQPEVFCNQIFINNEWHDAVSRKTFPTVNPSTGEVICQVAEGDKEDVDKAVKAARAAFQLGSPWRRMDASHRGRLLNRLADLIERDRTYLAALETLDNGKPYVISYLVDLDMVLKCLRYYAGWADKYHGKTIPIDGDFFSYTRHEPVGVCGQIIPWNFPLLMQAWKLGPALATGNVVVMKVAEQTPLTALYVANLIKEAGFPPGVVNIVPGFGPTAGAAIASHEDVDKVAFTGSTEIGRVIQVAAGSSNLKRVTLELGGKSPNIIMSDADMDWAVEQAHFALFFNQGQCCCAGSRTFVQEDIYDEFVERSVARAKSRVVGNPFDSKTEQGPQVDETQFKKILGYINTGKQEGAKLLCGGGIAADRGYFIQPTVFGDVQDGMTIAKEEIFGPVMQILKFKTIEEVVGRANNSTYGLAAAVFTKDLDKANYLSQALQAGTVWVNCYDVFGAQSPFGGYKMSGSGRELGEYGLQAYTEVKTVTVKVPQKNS
UniProt Q8WYP5: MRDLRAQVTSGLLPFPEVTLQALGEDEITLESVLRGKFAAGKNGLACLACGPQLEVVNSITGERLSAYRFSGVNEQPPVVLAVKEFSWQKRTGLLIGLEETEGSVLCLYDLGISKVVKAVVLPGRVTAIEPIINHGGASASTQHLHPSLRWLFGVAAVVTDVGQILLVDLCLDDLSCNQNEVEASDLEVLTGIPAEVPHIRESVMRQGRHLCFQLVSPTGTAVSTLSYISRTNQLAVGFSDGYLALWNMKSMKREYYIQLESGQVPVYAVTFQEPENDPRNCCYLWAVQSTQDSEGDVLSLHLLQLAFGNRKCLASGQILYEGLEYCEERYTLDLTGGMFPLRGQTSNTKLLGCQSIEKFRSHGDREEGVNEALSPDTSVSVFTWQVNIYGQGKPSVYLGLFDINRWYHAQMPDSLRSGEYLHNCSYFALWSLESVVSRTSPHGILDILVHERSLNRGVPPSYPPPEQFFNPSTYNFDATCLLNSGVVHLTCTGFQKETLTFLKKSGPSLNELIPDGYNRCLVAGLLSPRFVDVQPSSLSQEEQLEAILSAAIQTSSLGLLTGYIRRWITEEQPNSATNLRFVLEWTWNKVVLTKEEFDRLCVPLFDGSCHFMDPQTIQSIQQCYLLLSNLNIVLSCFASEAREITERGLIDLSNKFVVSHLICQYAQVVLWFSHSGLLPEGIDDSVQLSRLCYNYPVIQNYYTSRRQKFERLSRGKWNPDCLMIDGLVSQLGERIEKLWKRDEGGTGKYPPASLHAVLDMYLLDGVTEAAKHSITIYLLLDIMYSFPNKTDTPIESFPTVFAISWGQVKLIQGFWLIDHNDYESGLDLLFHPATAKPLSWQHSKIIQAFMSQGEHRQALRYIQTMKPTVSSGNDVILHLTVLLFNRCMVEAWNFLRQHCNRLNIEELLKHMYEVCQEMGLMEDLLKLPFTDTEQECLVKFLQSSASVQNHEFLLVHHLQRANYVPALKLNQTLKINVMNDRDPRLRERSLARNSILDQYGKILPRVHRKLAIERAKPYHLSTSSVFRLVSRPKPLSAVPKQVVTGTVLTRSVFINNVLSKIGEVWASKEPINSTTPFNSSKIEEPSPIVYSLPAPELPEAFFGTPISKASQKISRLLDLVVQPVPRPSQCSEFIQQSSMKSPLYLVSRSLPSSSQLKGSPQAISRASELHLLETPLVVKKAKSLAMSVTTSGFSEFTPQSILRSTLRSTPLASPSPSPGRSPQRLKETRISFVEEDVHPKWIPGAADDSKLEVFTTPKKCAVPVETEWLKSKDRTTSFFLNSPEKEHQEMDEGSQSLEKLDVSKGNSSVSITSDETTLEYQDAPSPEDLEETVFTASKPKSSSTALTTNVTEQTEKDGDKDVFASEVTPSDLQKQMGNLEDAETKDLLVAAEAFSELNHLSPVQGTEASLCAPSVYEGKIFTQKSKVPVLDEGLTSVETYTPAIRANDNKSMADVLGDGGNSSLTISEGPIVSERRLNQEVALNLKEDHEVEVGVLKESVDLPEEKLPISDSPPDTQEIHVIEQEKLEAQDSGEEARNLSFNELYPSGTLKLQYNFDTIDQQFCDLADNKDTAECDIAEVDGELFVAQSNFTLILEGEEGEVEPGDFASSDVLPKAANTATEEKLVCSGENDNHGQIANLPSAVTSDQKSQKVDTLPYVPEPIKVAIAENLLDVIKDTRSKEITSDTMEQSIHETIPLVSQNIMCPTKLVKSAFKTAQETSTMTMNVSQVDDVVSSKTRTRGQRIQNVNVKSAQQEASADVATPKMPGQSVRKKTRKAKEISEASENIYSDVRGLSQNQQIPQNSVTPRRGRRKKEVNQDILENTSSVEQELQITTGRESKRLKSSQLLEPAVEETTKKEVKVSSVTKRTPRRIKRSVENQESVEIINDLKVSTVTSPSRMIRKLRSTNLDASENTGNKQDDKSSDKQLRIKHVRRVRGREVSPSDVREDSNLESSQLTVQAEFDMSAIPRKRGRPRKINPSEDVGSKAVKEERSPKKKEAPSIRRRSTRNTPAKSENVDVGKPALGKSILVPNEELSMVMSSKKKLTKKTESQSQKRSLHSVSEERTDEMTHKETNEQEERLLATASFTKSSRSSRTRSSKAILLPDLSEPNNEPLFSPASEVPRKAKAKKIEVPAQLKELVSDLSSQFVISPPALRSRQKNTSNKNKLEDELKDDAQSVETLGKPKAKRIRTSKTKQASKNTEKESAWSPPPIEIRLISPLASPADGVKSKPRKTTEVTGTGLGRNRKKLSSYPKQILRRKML
UniProt O95831, whole entry, looked up: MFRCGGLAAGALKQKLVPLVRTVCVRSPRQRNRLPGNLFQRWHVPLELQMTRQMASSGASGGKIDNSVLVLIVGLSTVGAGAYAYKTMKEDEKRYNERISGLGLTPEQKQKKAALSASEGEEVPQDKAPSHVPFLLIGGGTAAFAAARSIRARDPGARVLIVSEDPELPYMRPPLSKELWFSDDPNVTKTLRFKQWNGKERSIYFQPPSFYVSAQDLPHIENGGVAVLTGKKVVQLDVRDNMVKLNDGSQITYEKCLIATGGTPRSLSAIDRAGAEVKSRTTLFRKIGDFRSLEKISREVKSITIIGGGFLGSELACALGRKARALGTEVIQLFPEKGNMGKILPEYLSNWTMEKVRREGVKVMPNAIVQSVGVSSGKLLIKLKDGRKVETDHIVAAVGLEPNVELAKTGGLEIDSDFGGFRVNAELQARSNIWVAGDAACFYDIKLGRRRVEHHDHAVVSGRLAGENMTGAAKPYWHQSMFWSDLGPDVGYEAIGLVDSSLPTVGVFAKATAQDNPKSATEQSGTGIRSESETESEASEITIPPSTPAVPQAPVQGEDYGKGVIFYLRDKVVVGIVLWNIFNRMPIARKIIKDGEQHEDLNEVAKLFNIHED
UniProt P54886: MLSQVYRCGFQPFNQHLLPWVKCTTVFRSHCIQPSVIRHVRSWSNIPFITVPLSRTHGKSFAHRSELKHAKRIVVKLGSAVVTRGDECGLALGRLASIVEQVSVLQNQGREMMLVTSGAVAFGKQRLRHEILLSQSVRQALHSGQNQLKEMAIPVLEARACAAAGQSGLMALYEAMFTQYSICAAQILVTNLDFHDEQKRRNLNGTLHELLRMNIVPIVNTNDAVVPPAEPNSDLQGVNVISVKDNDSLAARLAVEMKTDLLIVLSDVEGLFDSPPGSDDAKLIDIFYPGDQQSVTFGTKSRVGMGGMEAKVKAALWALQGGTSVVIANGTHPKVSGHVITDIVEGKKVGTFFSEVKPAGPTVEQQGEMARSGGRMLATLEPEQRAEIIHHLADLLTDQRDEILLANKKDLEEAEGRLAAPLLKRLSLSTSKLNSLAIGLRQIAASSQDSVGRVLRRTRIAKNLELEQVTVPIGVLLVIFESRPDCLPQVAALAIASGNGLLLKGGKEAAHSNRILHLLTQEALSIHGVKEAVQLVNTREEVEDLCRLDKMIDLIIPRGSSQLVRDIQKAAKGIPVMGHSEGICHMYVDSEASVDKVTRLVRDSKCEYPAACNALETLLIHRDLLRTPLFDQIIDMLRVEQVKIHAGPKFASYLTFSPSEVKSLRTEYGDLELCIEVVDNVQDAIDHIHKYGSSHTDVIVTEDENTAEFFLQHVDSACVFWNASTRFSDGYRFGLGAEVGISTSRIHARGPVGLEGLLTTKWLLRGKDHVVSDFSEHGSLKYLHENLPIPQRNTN
UniProt Q9NVV5: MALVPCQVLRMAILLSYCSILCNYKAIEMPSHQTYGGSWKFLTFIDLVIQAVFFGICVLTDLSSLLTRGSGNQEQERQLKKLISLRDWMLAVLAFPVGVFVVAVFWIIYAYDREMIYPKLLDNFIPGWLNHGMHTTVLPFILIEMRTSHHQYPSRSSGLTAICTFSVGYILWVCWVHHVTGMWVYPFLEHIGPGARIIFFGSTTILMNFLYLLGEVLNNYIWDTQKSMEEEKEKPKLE
UniProt O00170: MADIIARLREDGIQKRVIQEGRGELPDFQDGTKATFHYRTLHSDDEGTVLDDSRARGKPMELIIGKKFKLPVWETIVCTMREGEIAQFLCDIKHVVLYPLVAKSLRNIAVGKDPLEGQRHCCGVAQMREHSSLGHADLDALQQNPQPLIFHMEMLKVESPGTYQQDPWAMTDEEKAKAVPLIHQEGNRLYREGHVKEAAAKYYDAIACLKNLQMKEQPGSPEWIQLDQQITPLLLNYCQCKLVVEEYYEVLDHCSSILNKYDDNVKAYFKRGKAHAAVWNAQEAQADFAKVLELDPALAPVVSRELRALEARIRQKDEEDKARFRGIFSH
UniProt O95433, whole entry, looked up: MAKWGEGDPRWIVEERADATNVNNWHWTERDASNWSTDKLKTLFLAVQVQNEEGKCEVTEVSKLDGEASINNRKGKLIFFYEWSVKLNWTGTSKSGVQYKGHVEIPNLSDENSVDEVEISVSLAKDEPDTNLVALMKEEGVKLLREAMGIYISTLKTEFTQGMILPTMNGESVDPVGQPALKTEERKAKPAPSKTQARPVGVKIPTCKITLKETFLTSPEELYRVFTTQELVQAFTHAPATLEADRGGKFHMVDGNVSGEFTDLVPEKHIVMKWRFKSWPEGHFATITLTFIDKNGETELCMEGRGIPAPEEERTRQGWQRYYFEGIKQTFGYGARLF
UniProt Q13686: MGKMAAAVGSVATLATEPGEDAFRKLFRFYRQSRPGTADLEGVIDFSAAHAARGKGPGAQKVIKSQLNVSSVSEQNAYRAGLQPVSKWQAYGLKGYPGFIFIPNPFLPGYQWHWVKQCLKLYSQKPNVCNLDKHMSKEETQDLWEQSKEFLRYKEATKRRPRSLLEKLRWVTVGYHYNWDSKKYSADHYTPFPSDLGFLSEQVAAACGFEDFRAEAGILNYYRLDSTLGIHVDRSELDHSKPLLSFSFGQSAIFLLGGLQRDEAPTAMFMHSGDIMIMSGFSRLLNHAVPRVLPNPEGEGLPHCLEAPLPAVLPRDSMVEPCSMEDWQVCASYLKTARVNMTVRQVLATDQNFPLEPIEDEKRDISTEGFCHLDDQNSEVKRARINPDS
UniProt P14550: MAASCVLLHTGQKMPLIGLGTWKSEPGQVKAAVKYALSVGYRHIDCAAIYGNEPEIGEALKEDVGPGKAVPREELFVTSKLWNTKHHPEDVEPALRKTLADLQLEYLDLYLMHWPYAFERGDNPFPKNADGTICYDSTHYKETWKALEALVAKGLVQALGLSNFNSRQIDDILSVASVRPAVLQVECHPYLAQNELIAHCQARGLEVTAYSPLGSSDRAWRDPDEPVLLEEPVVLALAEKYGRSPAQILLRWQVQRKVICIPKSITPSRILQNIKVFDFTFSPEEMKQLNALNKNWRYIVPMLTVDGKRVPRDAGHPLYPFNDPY
UniProt P23526: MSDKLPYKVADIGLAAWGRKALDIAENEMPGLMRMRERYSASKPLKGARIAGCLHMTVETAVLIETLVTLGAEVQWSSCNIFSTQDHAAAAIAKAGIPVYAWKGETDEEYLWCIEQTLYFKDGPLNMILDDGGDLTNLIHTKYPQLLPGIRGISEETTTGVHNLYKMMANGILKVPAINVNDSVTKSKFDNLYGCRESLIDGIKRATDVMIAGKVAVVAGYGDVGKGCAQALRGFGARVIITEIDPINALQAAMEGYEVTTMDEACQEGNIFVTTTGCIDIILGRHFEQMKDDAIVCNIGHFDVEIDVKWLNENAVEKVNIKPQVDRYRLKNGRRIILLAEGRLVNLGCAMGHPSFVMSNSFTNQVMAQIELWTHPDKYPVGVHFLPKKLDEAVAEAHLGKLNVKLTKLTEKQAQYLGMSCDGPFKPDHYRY

Compound: CC1Cc2ccccc2N1C(=O)C1CCCN(C1)C(=O)CCl (mixture of isomers) [TRIM25 ligand 11 (diastereomer mixture)]
Assay: probe-labelled cysteine peptide fold change vs DMSO (competition) (log2 fold change); higher = less target engagement (more negative = stronger competition)
Conditions: THP-1, incubation time: 4 h
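Note: competitive chemoproteomic profiling in live THP-1 cells with an iodoacetamide desthiobiotin (IA-DTB) probe, comparing probe-labelled peptide intensities in compound-treated cells against DMSO-treated controls.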

| Target | probe-labelled cysteine peptide fold change (10 µM) | probe-labelled cysteine peptide fold change (50 µM) |
| --- | --- | --- |
| AIMP2_Q13155_143_LLCEHFR (UniProt Q13155) | -0.017 | 0.0681 |
| AKR7A2_O43488_132_RLQCPQVDLFYLHAPDHGTPVEETLHACQR (UniProt O43488) | -0.215 | -0.145 |
| ALDH2_P05091_386_LLCGGGIAADR (UniProt P05091) | -0.0272 | 0.0954 |
| AHCTF1_Q8WYP5_354_LLGCQSIEK (UniProt Q8WYP5) | -0.0355 | -0.209 |
| AIFM1_O95831_441_SNIWVAGDAACFYDIK (UniProt O95831) | -0.0697 | 0.0312 |
| AK2_P54819_40+42_LAENFCVCHLATGDMLR (UniProt P54819) | -0.0303 | 0.0733 |
| ALDH18A1_P54886_606_CEYPAACNALETLLIHR (UniProt P54886) | 0.0799 | -0.0327 |
| AIG1_Q9NVV5_6_MALVPCQVLR (UniProt Q9NVV5) | -0.104 | 0.301 |
| AIP_O00170_90_EGEIAQFLCDIK (UniProt O00170) | -0.0698 | 0.00981 |
| AHSA1_O95433_301_NGETELCMEGR (UniProt O95433) | 0.0782 | 0.0585 |
| ALKBH1_Q13686_304_VLPNPEGEGLPHCLEAPLPAVLPR (UniProt Q13686) | 0.0258 | -0.445 |
| AKR1A1_P14550_46_HIDCAAIYGNEPEIGEALKEDVGPGK (UniProt P14550) | -0.539 | -0.46 |
| AHCY_P23526_421_QAQYLGMSCDGPFKPDHYR (UniProt P23526) | -0.0187 | -0.0741 |
| AKR1B1_P15121_200_LIQYCQSK (UniProt P15121) | -0.018 | -0.0644 |
